The text below walks through data of publication doi:10.1101/2020.01.09.900548.

Chains of the proteins cited; added tags and fusions are not shown.
UniProt Q16531: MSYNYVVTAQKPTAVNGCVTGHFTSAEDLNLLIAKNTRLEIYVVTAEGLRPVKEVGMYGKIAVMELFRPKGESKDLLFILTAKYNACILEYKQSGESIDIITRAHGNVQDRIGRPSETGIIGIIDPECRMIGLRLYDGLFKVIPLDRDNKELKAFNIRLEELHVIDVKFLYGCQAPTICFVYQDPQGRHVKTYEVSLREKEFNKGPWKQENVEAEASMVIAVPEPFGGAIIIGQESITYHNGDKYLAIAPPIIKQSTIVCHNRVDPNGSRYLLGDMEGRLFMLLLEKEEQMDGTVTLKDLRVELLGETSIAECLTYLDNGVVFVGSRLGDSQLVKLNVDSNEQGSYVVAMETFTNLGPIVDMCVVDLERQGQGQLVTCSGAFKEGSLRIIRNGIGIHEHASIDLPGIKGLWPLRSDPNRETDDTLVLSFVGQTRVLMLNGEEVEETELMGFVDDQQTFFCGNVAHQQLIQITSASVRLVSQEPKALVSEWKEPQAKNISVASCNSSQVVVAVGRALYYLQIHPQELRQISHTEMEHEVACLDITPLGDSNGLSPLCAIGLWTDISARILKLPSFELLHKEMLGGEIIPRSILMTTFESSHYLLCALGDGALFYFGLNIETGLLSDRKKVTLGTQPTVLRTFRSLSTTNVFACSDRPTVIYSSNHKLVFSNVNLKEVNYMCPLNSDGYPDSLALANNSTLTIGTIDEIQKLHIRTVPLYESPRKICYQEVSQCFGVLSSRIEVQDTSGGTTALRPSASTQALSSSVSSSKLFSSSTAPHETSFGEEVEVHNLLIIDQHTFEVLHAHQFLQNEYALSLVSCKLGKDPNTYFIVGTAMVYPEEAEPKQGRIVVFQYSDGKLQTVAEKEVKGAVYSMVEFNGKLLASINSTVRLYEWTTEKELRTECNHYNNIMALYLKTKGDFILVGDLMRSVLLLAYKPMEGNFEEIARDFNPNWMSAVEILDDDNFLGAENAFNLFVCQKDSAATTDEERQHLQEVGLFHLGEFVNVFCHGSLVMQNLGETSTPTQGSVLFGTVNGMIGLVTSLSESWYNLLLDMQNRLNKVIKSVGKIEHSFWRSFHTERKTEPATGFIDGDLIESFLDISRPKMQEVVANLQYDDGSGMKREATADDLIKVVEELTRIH
UniProt Q13547: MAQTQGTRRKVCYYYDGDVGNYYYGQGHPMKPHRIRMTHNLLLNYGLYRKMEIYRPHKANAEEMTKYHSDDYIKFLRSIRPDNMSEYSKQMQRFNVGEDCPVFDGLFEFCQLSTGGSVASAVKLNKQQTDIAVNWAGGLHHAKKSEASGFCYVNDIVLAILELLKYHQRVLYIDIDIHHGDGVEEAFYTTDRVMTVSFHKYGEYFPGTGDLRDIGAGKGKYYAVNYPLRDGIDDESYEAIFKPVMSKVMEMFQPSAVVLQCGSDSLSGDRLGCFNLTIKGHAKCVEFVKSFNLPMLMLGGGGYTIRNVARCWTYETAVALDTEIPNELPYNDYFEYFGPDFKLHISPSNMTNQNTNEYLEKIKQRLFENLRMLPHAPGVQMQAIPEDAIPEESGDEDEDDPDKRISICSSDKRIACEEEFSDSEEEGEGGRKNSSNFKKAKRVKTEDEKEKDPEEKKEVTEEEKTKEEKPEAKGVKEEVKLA
UniProt Q92769: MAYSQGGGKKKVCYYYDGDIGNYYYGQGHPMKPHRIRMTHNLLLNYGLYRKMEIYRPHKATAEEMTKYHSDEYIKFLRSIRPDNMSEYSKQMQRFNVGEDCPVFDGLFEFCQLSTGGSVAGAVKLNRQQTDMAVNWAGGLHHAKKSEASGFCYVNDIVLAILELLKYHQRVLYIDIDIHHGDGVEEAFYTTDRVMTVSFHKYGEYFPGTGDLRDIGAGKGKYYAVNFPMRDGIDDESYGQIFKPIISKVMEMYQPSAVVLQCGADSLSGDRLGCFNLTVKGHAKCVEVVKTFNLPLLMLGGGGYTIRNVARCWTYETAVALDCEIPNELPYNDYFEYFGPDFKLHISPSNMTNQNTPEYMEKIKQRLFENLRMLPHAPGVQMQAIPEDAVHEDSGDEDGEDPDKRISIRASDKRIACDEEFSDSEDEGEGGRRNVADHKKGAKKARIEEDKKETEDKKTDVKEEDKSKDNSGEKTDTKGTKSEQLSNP
UniProt P78527: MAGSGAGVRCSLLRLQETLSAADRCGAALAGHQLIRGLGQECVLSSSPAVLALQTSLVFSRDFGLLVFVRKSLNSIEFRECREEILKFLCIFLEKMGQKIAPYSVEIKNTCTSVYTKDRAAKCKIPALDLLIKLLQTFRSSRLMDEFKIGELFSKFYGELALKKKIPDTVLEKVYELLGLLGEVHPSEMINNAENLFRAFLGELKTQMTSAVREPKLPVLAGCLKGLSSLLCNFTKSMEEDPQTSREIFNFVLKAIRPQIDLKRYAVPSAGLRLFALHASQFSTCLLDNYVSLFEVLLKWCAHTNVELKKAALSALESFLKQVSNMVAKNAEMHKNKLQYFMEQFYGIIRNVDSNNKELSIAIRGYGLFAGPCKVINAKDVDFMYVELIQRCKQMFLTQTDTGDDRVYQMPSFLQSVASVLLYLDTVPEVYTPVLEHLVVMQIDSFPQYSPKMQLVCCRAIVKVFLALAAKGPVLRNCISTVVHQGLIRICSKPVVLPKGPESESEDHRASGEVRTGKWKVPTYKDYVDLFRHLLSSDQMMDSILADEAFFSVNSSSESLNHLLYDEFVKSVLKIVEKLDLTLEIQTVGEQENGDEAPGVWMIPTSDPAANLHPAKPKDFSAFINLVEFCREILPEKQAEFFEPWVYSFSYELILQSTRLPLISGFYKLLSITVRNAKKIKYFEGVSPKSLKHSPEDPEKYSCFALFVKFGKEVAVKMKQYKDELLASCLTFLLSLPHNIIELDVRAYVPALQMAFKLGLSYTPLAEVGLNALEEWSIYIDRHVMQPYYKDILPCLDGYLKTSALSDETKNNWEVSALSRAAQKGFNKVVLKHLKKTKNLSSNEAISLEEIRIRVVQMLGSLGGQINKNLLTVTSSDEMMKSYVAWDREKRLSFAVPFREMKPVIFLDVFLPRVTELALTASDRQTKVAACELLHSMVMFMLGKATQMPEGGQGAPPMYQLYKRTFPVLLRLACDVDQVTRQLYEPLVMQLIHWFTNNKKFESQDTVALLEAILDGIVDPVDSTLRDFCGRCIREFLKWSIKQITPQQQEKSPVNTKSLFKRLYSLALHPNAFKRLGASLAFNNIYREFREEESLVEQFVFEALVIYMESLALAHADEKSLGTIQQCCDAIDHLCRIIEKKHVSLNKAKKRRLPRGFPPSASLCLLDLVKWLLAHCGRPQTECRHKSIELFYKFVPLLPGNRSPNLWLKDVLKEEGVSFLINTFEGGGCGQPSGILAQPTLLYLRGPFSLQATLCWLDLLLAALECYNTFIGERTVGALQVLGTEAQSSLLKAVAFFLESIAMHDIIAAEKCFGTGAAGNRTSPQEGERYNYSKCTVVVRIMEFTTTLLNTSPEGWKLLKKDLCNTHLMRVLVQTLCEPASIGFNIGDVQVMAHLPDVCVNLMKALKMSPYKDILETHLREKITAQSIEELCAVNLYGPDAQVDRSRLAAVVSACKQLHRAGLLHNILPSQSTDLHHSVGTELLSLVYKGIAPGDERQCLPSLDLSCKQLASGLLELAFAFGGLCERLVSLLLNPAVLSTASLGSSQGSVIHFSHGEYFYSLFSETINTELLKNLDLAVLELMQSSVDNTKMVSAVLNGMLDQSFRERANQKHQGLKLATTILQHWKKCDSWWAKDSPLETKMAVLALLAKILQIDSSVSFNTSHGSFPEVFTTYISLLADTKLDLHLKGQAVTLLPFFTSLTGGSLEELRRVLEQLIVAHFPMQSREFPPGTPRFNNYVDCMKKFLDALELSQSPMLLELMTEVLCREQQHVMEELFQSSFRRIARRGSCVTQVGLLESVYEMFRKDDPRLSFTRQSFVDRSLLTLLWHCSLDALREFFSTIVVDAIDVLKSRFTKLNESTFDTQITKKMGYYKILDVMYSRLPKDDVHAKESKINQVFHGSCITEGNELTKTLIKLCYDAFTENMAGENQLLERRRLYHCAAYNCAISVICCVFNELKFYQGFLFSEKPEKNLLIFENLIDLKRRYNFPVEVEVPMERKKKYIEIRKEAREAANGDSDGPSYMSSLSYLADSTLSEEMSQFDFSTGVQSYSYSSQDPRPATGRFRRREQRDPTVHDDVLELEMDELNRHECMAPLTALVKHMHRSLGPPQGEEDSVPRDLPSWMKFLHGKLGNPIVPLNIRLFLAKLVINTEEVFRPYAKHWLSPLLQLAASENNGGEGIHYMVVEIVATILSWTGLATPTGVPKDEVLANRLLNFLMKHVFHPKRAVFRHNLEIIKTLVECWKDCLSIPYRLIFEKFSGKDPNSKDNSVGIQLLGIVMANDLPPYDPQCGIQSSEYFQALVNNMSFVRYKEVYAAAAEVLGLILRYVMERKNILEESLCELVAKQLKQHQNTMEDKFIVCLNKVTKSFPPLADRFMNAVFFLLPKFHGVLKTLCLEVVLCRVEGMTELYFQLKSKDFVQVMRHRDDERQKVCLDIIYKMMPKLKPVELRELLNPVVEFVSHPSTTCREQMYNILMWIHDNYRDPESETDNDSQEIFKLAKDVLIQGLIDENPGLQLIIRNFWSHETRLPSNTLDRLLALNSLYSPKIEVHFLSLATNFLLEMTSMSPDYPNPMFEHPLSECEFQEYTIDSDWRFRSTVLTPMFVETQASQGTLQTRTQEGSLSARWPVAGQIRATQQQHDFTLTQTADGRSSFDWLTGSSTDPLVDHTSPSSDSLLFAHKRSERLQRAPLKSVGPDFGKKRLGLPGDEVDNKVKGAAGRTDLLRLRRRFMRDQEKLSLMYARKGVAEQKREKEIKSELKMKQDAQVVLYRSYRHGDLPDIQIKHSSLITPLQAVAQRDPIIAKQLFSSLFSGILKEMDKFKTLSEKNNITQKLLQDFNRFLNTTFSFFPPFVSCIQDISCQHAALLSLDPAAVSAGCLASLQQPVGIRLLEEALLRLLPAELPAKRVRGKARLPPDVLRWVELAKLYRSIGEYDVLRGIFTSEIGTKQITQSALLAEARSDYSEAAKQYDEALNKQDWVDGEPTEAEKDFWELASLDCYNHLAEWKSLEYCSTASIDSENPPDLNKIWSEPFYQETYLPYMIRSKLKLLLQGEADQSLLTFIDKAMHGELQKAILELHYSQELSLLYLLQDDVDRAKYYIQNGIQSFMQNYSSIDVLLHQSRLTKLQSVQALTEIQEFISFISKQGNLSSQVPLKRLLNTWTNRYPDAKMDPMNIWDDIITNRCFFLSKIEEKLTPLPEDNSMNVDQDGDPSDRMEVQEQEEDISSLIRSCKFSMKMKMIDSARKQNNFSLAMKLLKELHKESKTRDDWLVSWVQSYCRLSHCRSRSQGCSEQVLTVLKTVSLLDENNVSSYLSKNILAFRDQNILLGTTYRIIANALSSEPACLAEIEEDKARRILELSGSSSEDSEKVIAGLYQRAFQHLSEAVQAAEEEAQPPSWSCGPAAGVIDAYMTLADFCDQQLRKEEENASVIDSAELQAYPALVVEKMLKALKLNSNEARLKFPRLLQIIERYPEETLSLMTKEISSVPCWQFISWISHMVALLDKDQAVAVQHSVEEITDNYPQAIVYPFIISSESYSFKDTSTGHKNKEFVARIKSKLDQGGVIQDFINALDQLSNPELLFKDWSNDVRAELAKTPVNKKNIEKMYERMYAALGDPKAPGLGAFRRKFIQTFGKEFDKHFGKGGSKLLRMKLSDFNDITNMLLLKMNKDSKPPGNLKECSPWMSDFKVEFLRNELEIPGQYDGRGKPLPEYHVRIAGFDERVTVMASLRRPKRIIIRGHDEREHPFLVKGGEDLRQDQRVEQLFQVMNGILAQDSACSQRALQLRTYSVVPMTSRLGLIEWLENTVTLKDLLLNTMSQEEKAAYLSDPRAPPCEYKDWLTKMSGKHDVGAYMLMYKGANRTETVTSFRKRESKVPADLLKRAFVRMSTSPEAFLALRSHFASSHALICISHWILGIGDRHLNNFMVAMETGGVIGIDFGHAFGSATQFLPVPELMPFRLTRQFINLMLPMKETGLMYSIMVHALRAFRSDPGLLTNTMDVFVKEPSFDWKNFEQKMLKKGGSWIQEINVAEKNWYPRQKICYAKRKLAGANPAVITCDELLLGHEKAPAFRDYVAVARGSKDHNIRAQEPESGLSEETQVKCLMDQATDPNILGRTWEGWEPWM

Results are given in words; binding and its absence hold for the method and conditions named. Binding seen in cells or lysates may run through a third protein. These calls come from enrichment with a bait or labelling near it, and not all partners need be listed. Sequences can lack the tags named with a protein.

T1: FLAG-tagged ZNF704 (FLAG-ZNF704), stably expressed in MDA-MB-231 cells (human) (UniProt Q6ZNC4)
T1 sequence: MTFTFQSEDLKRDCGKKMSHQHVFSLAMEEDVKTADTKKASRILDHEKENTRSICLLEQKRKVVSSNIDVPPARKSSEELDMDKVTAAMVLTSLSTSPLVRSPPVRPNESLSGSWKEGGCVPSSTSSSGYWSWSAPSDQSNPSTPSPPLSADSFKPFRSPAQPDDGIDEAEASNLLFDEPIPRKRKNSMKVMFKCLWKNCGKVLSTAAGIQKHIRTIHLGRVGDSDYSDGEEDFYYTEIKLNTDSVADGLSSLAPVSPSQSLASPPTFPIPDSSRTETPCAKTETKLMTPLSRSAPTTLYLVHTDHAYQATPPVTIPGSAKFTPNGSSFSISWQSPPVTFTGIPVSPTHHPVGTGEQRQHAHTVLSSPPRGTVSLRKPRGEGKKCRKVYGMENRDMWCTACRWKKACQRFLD

B1: SAP130, endogenous in MDA-MB-231 cells (protein, UniProt Q9H0E3 1-1048)
chain: MGPPRHPQAGEIEAGGAGGGRRLQVEMSSQQFPRLGAPSTGLSQAPSQIANSGSAGLINPAATVNDESGRDSEVSAREHMSSSSSLQSREEKQEPVVVRPYPQVQMLSTHHAVASATPVAVTAPPAHLTPAVPLSFSEGLMKPPPKPTMPSRPIAPAPPSTLSLPPKVPGQVTVTMESSIPQASAIPVATISGQQGHPSNLHHIMTTNVQMSIIRSNAPGPPLHIGASHLPRGAAAAAVMSSSKVTTVLRPTSQLPNAATAQPAVQHIIHQPIQSRPPVTTSNAIPPAVVATVSATRAQSPVITTTAAHATDSALSRPTLSIQHPPSAAISIQRPAQSRDVTTRITLPSHPALGTPKQQLHTMAQKTIFSTGTPVAAATVAPILATNTIPSATTAGSVSHTQAPTSTIVTMTVPSHSSHATAVTTSNIPVAKVVPQQITHTSPRIQPDYPAERSSLIPISGHRASPNPVAMETRSDNRPSVPVQFQYFLPTYPPSAYPLAAHTYTPITSSVSTIRQYPVSAQAPNSAITAQTGVGVASTVHLNPMQLMTVDASHARHIQGIQPAPISTQGIQPAPIGTPGIQPAPLGTQGIHSATPINTQGLQPAPMGTQQPQPEGKTSAVVLADGATIVANPISNPFSAAPAATTVVQTHSQSASTNAPAQGSSPRPSILRKKPATDGAKPKSEIHVSMATPVTVSMETVSNQNNDQPTIAVPPTAQQPPPTIPTMIAAASPPSQPAVALSTIPGAVPITPPITTIAAAPPPSVTVGGSLSSVLGPPVPEIKVKEEVEPMDIMRPVSAVPPLATNTVSPSLALLANNLSMPTSDLPPGASPRKKPRKQQHVISTEEGDMMETNSTDDEKSTAKSLLVKAEKRKSPPKEYIDEEGVRYVPVRPRPPITLLRHYRNPWKAAYHHFQRYSDVRVKEEKKAMLQEIANQKGVSCRAQGWKVHLCAAQLLQLTNLEHDVYERLTNLQEGIIPKKKAATDDDLHRINELIQGNMQRCKLVMDQISEARDSMLKVLDHKDRVLKLLNKNGTVKKVSKLKRKEKV

In the assay the target is T1, FLAG-tagged ZNF704 (FLAG-ZNF704), stably expressed in MDA-MB-231 cells (human). The assay is described as follows: affinity purification with mass spectrometry.
For the molecule “DDB1, endogenous in MDA-MB-231 cells (from UniProt Q16531 1-1140)”, the binding entry is “binds”.

For “HDAC1, endogenous in MDA-MB-231 cells (from UniProt Q13547 1-482) (enzyme)”, the binding entry was “binds”.

For “HDAC2, endogenous in MDA-MB-231 cells (from UniProt Q92769 1-488) (enzyme)”, the binding result is reported as “binds”.

Turning to “PRKDC, endogenous in MDA-MB-231 cells (from UniProt P78527 1-4128) (enzyme)”, the binding result is listed as “binds”.

Regarding B1, the binding result is recorded as “binds”.
